We go through 1 molecule from publication PMC6964270, “Co-Prodrugs of 7-Ethyl-10-hydroxycamptothecin and Vorinostat with in Vitro Hydrolysis and Anticancer Effects” (ACS Omega, 2019).

One assay relates to A549 cell line. As to the kind of experiment: In vitro cytotoxicity, SRB assay, A549. It is filed as cell-based. To be noted: Homo sapiens, 72 h, three independent determinations, read-out: IC50 (mean ± SD) A549. The protocol:
(§1) The in vitro biological efficacy of 3a–d was evaluated in A549 and HCT116 cell lines. Briefly, the cells were seeded into 96-well microtest plates (1.0 × 10^4 cells per well) in 100 μL of culture medium. Cells were treated in triplicate with gradient concentrations of test drugs and incubated at 37 °C for 72 h. The cell viabilities on the cell lines were determined by the SRB assay subsequently. The drug concentration required for 50% growth inhibition (IC50) of tumor cells was determined from the dose–response curves.
(Sulforhodamine B stains cellular protein and so reports cell mass.)

The test system of a further assay is HCT116 cell line. The experiment in a line: In vitro cytotoxicity, SRB assay, HCT116. In kind it is cell-based. To be noted: Homo sapiens, HCT-116, 72 h, three independent determinations, read-out: IC50 (mean ± SD) HCT-116. The protocol:
as §1

In general, IC50 refers to the midpoint of a concentration-inhibition curve. For `O=C(CCCCCCC(=O)Nc1ccccc1)NO` [SAHA, Suberoylanilide hydroxamic acid, reference compound], the IC50 stood at 2650 ± 126 nM in the assay on A549 cell line and 895 ± 57.3 nM in the assay on HCT116 cell line.
